From the supplement of paper PMC8497498
This is one part of the list. The data scatter; read single values as rough.

What was measured:
Settings in all cases: 10 µM
[1] = tested on: Plasmodium vivax liver stage (primary human hepatocyte culture); assay: hypnozoite quantity inhibition (% inhibition); higher = more active against hypnozoites
[2] = tested on: Plasmodium vivax liver stage (primary human hepatocyte culture); assay: schizont net growth area inhibition (% inhibition); higher = more active against liver schizonts
[3] = tested on: primary human hepatocytes; assay: hepatic nuclei reduction relative to DMSO (100 - % of negative control); higher = more toxic to hepatocytes
[4] = assay mode: Prophylactic (treated before or shortly after infection), fixed day 6 post-infection
[5] = assay mode: Radical Cure (treated from day 5 post-infection for 3 days), fixed day 8 post-infection

Row | SMILES | hypnozoite quantity inhibition [1, 4] | hypnozoite quantity inhibition [1, 5] | schizont net growth area inhibition [2, 4] | schizont net growth area inhibition [2, 5] | hepatic nuclei reduction [3, 4] [%] | hepatic nuclei reduction [3, 5] [%]
1 | O=C(O)C1Cc2c([nH]c3ccccc23)C(c2ccc(Cl)cc2Cl)N1 (stereo not drawn) | 27.2 | 26.5 | 45.3 | -11.3 | -4 | -4
2 | Cc1sc2ncnc(Sc3nc4ccccc4[nH]3)c2c1C | 94.6 | 81.7 | 103 | 86.6 | -9 | -2
3 | CN(C)CCNc1cc(-c2ccccc2)nc2ccccc12 | -1.3 | 51.9 | -87.6 | 34.9 | -2 | 6
4 | CCN(CC)S(=O)(=O)c1ccc(-c2csc(Nc3ccc(C)c(C)c3)n2)cc1 | 25.9 | -36.2 | 29.3 | -100 | -5 | -6
5 | O=C(Nc1ccccc1O)c1ccc(Oc2cccc(C(=O)Nc3ccccc3O)c2)cc1 | -47.4 | 31.3 | -5.1 | -3 | 1 | -6
6 | COc1ccc(C2c3ccc4ccccc4c3Oc3ncn(CCCn4ccnc4)c(=N)c32)cc1OC (stereo not drawn) | -5 | 40.5 | -71.2 | -64.6 | -3 | -6
7 | O=C(NC1CCN(Cc2ccccc2)CC1)c1cc2nc(-c3ccc(Cl)s3)cc(C(F)(F)F)n2n1 | -28.1 | 40.5 | -72.3 | 33.6 | -18 | -5
8 | Nc1ncc(Br)cc1-c1nc2cc(Cl)cnc2[nH]1 | -156 | -173 | -56.5 | -112 | -5 | -4
9 | O=C(NCC(c1ccsc1)N1CCCCCC1)c1ccc(C(F)(F)F)cc1 (stereo not drawn) | -27.2 | 12.8 | -17.3 | 3 | -3 | -8
10 | Clc1ccc2[nH]c3c(NCCCN4CCOCC4)ncnc3c2c1 | -10.1 | -8.9 | -14.4 | -106 | 1 | -10
11 | Cc1cc(NC(=O)C2c3ccccc3C(=O)N(CC(C)C)C2c2cccs2)no1 (stereo not drawn) | 2.5 | 34.6 | 58 | -36.1 | -1 | 5
12 | COc1ccc(-c2nnc3ccc(-c4cccc(C(C)C)c4)cn23)cc1OC | 41 | -12 | 25.8 | -21.8 | 3 | -10
13 | CN1CCCN(C(c2ccccc2)c2ccc(Cl)cc2)CC1 (stereo not drawn) | -34 | 26 | -23.8 | 26.1 | -12 | -2
14 | COc1ccc(S(=O)(=O)Nc2ccc(CN3CCN(C(=O)c4cccc(C#N)c4)CC3)cc2)cc1 | 56 | 24 | 29.2 | -9.7 | 5 | -3
15 | COc1ccc(C(O)(CCC(C)C)C(CN2CCOCC2)c2ccc(Cl)cc2)cc1 (stereo not drawn) | 27.8 | 23.7 | 54.5 | -7.1 | -2 | 1
16 | CCc1ccccc1-n1c(C)cn2c3c(=O)n(C(C(=O)OC)C(C)C)c(=O)n(C)c3nc12 (stereo not drawn) | 16 | 4 | -9.7 | 43 | -8 | 2
17 | O=C(NC1CCCC1)c1ccc(N2CCC(NCc3cccc(C(F)(F)F)c3)CC2)cc1 | -6.3 | 12.8 | -26.5 | 18.8 | -2 | -3
18 | CCOC(=O)C1=CN(C)C=C(C(=O)OCC)C1c1cc(Br)c(OCC)c(OC)c1 | -43.7 | 42.7 | -26.5 | 40.2 | -12 | -3
19 | Cc1cccc(Cn2ccc(NC(=O)c3ccc4c(c3)OCO4)n2)c1 | 10 | -72 | 0 | -85 | 5 | -2
20 | COc1ccc(-c2nn(C(C)C)c3ncnc(N)c23)cc1OC | 94 | -4 | 102 | 107 | 9 | -9

Row | SMILES | hypnozoite quantity inhibition [1, 4] | hypnozoite quantity inhibition [1, 5] | schizont net growth area inhibition [2, 4] | schizont net growth area inhibition [2, 5] | hepatic nuclei reduction [3, 4] [%] | hepatic nuclei reduction [3, 5] [%]
21 | Cc1ccc(S(=O)(=O)n2cc(-c3ccnc(N)c3)c3cc(Br)cnc32)cc1 | -27 | 3 | 89.4 | 52.9 | 14 | 11
22 | CS(=O)(=O)N1CCC(Cn2nc(Cc3cccc4ccccc34)c3c(N)ncnc32)CC1 | 60 | -25 | 33.8 | 27.9 | 26 | 6
23 | Cc1[nH]c2cc(F)cc(F)c2c(=O)c1-c1ccc(Oc2ccc(OC(F)(F)F)cc2)cc1 | -70 | -31 | 49.3 | 25 | -4 | -1
24 | N=c1c2ccccc2nnn1-c1cccc(C(F)(F)F)c1 | -3.2 | 31.9 | 32.2 | -1.6 | 2 | -5
25 | Cc1ccnc(Nc2nc(-c3ccccn3)cs2)c1 | 29 | 43 | 106 | 79.5 | 15 | 5
26 | O=c1nc(C=Cc2ccc(Br)cc2)oc2ccccc12 | -53.3 | 45 | 22.2 | -37.2 | -2 | 2
27 | Cc1cc(N2CCN(C3CCCC3)CC2)n2c(nc3ccccc32)c1C#N | 18.3 | 18.3 | -8.2 | 16.3 | 0 | -7
28 | FC(F)(F)c1cccc(CNC2CCN(CCc3ccccc3)CC2)c1 | 27.2 | -36.2 | 25.8 | -51.3 | 7 | 0
29 | CN1CCC(NCc2cccc(-c3ccc(S(=O)(=O)NCc4ccccc4)cc3)c2)CC1 | -50 | -10 | 66.3 | 0.8 | 4 | 4
30 | COc1cccc(CC(=O)N2CCC(n3c(C)nc4ccc(F)cc43)CC2)c1 | 34 | -18 | 74.3 | -20 | 6 | 4
31 | COc1ccc(CCN2CCC(CN(C)Cc3cnn(-c4ccccc4)c3)CC2)cc1 | -8.8 | 31.9 | 14.9 | -11.6 | 2 | -1
32 | FC(F)(F)c1nnc2ccc(Cl)nn12 | 15 | -10 | 33.6 | -0.9 | -4 | 7
33 | CCc1ccc([C@@H]2C[C@H](C(F)(F)F)n3ncc(C(=O)NCc4ccc(OC)cc4)c3N2)cc1 | -19 | -25 | -43.8 | -181 | -11 | -6
34 | COC1OC2OC3(C)CCC4C(C)CCC(C1C)C24OO3 (stereo not drawn) | -42 | 18 | 70.8 | 87 | -12 | -7
35 | c1ccc(-c2cc(N3CCCCC3)c3ccccc3n2)nc1 | -4 | -2 | 14.9 | -2.1 | -2 | 5
36 | CC(c1cc(Cl)cc(Cl)c1)N(C)c1ncc2c(N)nc(N)nc2n1 (stereo not drawn) | 35 | -31 | -7.4 | -73.8 | 17 | 1
37 | COc1ccc2nc(C)cc(OCC(=O)Nc3ccccc3OC)c2c1 | -16 | -18 | 35.6 | -135 | -4 | -5
38 | CC(C)(C)c1ccc(C(=O)Nc2nc3ccccc3s2)cc1 | -18.3 | 7.4 | 15.4 | -116 | 2 | -6
39 | COc1cc(C(=O)ON=C(N)Cc2cccc3ccccc23)cc(OC)c1OC | -25.8 | 56.5 | -63.5 | 26.1 | -13 | 3
40 | O=C(NCCN1CCCC1)c1cc(NCCCCN2CCC(F)(F)CC2)nc2ccc(Cl)cc12 | 94 | -36 | 102 | 79.9 | 1 | 3

Row | SMILES | hypnozoite quantity inhibition [1, 4] | hypnozoite quantity inhibition [1, 5] | schizont net growth area inhibition [2, 4] | schizont net growth area inhibition [2, 5] | hepatic nuclei reduction [3, 4] [%] | hepatic nuclei reduction [3, 5] [%]
41 | Cc1ccc(-c2cc(C(=O)Nc3cccnc3)c3cc(Br)ccc3n2)cc1 | -3 | -36 | -69.9 | -12.5 | -10 | -1
42 | Cc1cc(=O)oc2c1ccc1oc(C(=O)c3ccccc3)c(C)c12 | -7.2 | 65.6 | 41.5 | 29.1 | -1 | 7
43 | COCCN(C(=O)Cc1cccs1)C(C(=O)NCc1ccc(OC)cc1)c1ccc(C(C)C)cc1 (stereo not drawn) | 2.5 | 21 | -27.1 | 31.1 | -5 | -13
44 | Cc1ccccc1OCCSc1nc2ccc(NC(=O)c3ccccc3)cc2s1 | -29.1 | 31.9 | 35.3 | -21.1 | 0 | -6
45 | CS(=O)(=O)c1ccc(C(=O)N(CC2CCCO2)c2nc3ccccc3s2)cc1[N+](=O)[O-] (stereo not drawn) | 17 | -31 | -4 | 50.6 | 13 | 10
46 | Nc1ncc(-c2cn[nH]c2)cc1-c1nc2cc(Cl)cnc2[nH]1 | 58 | -33 | 84.4 | 93.5 | 8 | 4
47 | CCOc1ccc(OCC(=O)Nc2cc(C)cc(C)c2)cc1 | -62 | -67 | 14.9 | -5.3 | -9 | -7
48 | O=C(Nc1ccc(Cl)cc1C(=O)Nc1ccncc1)c1ccc(Cl)cc1Cl | 18.3 | -41.6 | 35.5 | -82.2 | -9 | -9
49 | CC(Oc1ccccc1)C(=O)Nc1nc(-c2ccccn2)cs1 (stereo not drawn) | 2 | 35 | 14.4 | 36 | -3 | 0
50 | Cc1cccc(NC(=O)c2cc(S(=O)(=O)N(C)c3ccc(F)cc3)ccc2Cl)n1 | -26 | -36 | 41.8 | -45.3 | -7 | 0
51 | Oc1c2c(nc3cc(-c4ccccc4)nn13)CCCC2 | -19.1 | -21.4 | 14.1 | -48 | -10 | -6
52 | Cc1cc(N(C)C)nc(Nc2ccc(NC(=O)Nc3ccccc3)cc2)n1 | 35.4 | 7.4 | 100 | 49 | 0 | -11
53 | Cc1cnc(CCNC(=O)c2cc(-c3ccc(Cl)cc3)cs2)[nH]1 | 14 | 9 | 39.5 | -30.5 | -1 | -9
54 | CC(=O)Oc1ccccc1C(=O)Nc1ncc([N+](=O)[O-])s1 | 5 | -4 | 15.3 | -3.7 | -2 | -7
55 | Cc1ccc(-c2cc3c(SCC(=O)Nc4cc(C(F)(F)F)ccc4Cl)nccn3n2)cc1 | 5.7 | 67.3 | -36.9 | -59 | 5 | 0
56 | Cc1ccc(Cn2c(N3CCC(C(=O)NCc4cccs4)CC3)nc3ccccc32)cc1 | 19.5 | 45 | 93.8 | 10 | -7 | 4
57 | Cc1ccc(-c2cc3c(nn2)-c2ccccc2C3=O)cc1 | 23.4 | -44.4 | 4.6 | -71.5 | -2 | -5
58 | Oc1ccccc1CNCC12CC3CC(CC(C3)C1)C2 | -8.7 | 45 | -71.6 | 7.9 | -16 | 8

Single records (already shown):
`COc1ccc(CCN2CCC(CN(C)Cc3cnn(-c4ccccc4)c3)CC2)cc1` as listed: hypnozoite quantity inhibition [1, 4]: -8.8; hypnozoite quantity inhibition [1, 5]: 31.9; schizont net growth area inhibition [2, 4]: 14.9; schizont net growth area inhibition [2, 5]: -11.6; hepatic nuclei reduction [3, 4] [%]: 2; hepatic nuclei reduction [3, 5] [%]: -1
`Cc1ccc(-c2cc3c(nn2)-c2ccccc2C3=O)cc1` as listed: hypnozoite quantity inhibition [1, 4]: 23.4; hypnozoite quantity inhibition [1, 5]: -44.4; schizont net growth area inhibition [2, 4]: 4.6; schizont net growth area inhibition [2, 5]: -71.5; hepatic nuclei reduction [3, 4] [%]: -2; hepatic nuclei reduction [3, 5] [%]: -5
`O=C(NC1CCN(Cc2ccccc2)CC1)c1cc2nc(-c3ccc(Cl)s3)cc(C(F)(F)F)n2n1` as listed: hypnozoite quantity inhibition [1, 4]: -28.1; hypnozoite quantity inhibition [1, 5]: 40.5; schizont net growth area inhibition [2, 4]: -72.3; schizont net growth area inhibition [2, 5]: 33.6; hepatic nuclei reduction [3, 4] [%]: -18; hepatic nuclei reduction [3, 5] [%]: -5
